Assay [1] has as its target YN-B55β1 (UniProt Q00005). The assay is described as follows: co-IP.
In assay [2] the target is YN-B55β1 (UniProt Q00005). The assay is described as follows: split reporter; Aα-YC or YC-Aα, YN-B and pCMV5-SMTWT, pCMV5-SMTMUT or empty vector (1:1:2) co-transfected into NIH3T3 cells, YFP read 24 h later.
Assay [3] addresses YN-B55β1 (UniProt Q00005). The assay is described as follows: split reporter; equal amounts of the YN- and YC-fusion constructs co-transfected into NIH3T3 cells, fixed 24 h later, YFP read by fluorescence microscopy; in Fig. 3B also after aphidicolin (early S phase).

The chains behind the UniProt entries cited, without tags or fusion partners. Where a name states a change or a piece, a line headed by the entry shows the natural chain unless it says otherwise.
UniProt Q00005: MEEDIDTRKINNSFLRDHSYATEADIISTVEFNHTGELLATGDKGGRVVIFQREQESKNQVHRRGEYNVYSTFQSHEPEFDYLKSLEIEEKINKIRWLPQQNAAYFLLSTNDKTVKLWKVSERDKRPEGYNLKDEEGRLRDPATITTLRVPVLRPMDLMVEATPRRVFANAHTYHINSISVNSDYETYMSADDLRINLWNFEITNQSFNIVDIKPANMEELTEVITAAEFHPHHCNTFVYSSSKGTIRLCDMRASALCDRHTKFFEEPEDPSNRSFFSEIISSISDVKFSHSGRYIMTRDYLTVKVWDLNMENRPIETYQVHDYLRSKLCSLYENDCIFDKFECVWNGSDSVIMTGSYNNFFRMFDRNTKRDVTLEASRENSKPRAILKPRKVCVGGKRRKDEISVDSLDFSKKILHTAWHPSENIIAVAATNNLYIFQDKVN
UniProt P63330: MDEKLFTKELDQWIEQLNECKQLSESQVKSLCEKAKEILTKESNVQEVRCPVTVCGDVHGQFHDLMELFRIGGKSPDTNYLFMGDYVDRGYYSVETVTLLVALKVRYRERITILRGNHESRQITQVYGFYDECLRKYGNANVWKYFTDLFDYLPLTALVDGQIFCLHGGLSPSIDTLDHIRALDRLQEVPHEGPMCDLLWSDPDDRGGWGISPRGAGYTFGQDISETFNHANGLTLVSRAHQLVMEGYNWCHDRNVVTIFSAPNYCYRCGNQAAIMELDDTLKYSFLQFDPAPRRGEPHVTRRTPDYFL

Results on four substances are retold here after publication PMC4275284.

These are yes or no findings as the source states them, for the method shown. In cells and extracts the contact can be indirect. Binding calls can cover weak binding; strength is not graded here.

Turning to Aα-YC (from UniProt P30153 1-589), the binding result in the assay with YN-B55β1 [1], with YN-B55β1 [2] and with YN-B55β1 [3] was “binds” in each case.
Regarding YC-Aα (from UniProt P30153 1-589), the binding result in the assay with YN-B55β1 [3] is listed as “binds”.
Turning to “endogenous PP2A/A subunit (from UniProt Q76MZ3 1-589)”, in the assay with YN-B55β1 [1], the binding entry is listed as “binds”.
Same read-out and setting: with “endogenous PP2Ac subunit (from UniProt P63330 1-309)” the entry was “binds”.
